Measurements as given in article PMC8268430.
Results are given in words; binding and its absence hold for the method and conditions named. For part of these data: In cells and extracts the contact can be indirect. Some entries that bind do so weakly or less than the wild type. Sequences can lack the tags named with a protein.

T1: NAC102 fused to the GAL4 DNA-binding domain (BD) (Arabidopsis thaliana) (UniProt Q8H115)
T1 sequence: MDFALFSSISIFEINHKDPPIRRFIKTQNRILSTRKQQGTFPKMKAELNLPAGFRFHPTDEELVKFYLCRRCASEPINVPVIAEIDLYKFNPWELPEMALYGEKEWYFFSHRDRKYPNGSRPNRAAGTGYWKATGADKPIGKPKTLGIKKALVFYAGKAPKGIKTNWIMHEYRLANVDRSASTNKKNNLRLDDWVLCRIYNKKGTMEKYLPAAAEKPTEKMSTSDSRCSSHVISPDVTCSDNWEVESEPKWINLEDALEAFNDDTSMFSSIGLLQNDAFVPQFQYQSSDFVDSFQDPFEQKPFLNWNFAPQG

T2: NAC102-eYFP (Arabidopsis thaliana) (UniProt Q8H115)
T2 sequence: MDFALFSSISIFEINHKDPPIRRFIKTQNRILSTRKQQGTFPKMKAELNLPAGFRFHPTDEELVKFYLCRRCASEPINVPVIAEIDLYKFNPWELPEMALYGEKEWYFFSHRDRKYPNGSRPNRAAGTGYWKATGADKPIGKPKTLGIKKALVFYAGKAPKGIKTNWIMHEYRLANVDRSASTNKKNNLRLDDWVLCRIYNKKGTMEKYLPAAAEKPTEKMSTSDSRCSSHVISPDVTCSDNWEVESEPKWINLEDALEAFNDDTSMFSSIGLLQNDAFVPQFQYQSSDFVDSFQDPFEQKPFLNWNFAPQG


What follows are binders tested against T1, NAC102 fused to the GAL4 DNA-binding domain (BD) (Arabidopsis thaliana) (assay: two-hybrid; NAC102 fused to GAL4 BD as bait (pGBKT7, Y187), PEP and NEP subunits fused to GAL4 AD as prey (pGADT7, AH109); mated, diploids plated on DDO and on QDO + 10 mM 3-AT, 28 °C; growth compared with the AD control).

binding | Binder
binds | rpoA fused to the GAL4 activation domain (AD) (protein, UniProt P56762 1-329) MVREKVKVSTRTLQWKCVESKRDSKRLYYGRFILSPLMKGQADTIGIAMRRALLGEIEGTCITRAKSENIPHDYSNIAGIQESVHEILMNLNEIVLRSNLYGTRNALICVQGPGYITARDIILPPAVEIIDNTQHIATLTEPIDLCIELKIERNRGYSLKMSNNFEDRSYPIDAVFMPVENANHSIHSYGNGNEKQEILFLEIWTNGSLTPKEALHQASRNLINLFIPFLHVEEETFYLENNQHQVTLPFFPFHNRLVNLRKKKKTKELAFQYIFIDQLELPPRIYNCLKKSNIHTLLDLLNNSQEDLIKIEHFHVEDVKKILDILEKK
binds | rpoTp fused to the GAL4 activation domain (AD) (protein, UniProt O24600 1-993) MASAAAASPSLSLNPTSHFQHQTSLVTWLKPPPSSALFRRKTLPFFERHSLPISASSSSSSSSSTSLSVHEKPISNSVHFHGNLIESFENQDSSYAGTIKGASLIEELENPVERNGLSGRRRLFMQDPPWISALFLKGLSKMVDQTLKIERKDIDKRKFDSLRRRQVKEETEAWERMVDEYRDLEKEMCEKNLAPNLPYVKHMFLGWFQPLKDVIEREQKLQKNKSKKVRAAYAPHIELLPADKMAVIVMHKMMGLVMSGHEDGCIQVVQAAVSIGIAIEQEVRIHNFLKRTRKNNAGDSQEELKEKQLLRKRVNSLIRRKRIIDALKVVKSEGTKPWGRATQAKLGSRLLELLIEAAYVQPPLTQSGDSIPEFRPAFRHRFKTVTKYPGSKLVRRYGVIECDSLLLAGLDKSAKHMLIPYVPMLVPPKRWKGYDKGGYLFLPSYIMRTHGSKKQQDALKDISHKTAHRVFEALDTLGNTKWRVNRNILDVVERLWADGGNIAGLVNREDVPIPEKPSSEDPEELQSWKWSARKANKINRERHSLRCDVELKLSVARKMKDEEGFYYPHNLDFRGRAYPMHPHLNHLSSDLCRGTLEFAEGRPLGKSGLHWLKIHLANLYAGGVEKLSHDARLAFVENHLDDIMDSAENPIHGKRWWLKAEDPFQCLAACVILTQALKSPSPYSVISHLPIHQDGSCNGLQHYAALGRDSFEAAAVNLVAGEKPADVYSEISRRVHEIMKKDSSKDPESNPTAALAKILITQVDRKLVKQTVMTSVYGVTYVGAREQIKRRLEEKGVITDERMLFAAACYSAKVTLAALGEIFEAARAIMSWLGDCAKIIASDNHPVRWITPLGLPVVQPYCRSERHLIRTSLQVLALQREGNTVDVRKQRTAFPPNFVHSLDGTHMMMTAVACREAGLNFAGVHDSYWTHACDVDTMNRILREKFVELYNTPILEDLLQSFQESYPNLVFPPVPKRGDFDLKEVLKSQYFFN
binds | rpoB fused to the GAL4 activation domain (AD) (protein, UniProt P50546 1-1072) MLGDEKEGTSAIPGFNQIQFEGFYRFIDQGLIEELAKFPKIEDIDHEIEFQLFVETYQLVEPLIKERDAVYESLTYSSELYVSAGLIWKTSRNMQEQRIFIGNIPLMNSLGTSIVNGIYRIVINQILQSPGIYYQSELDHNGISVYTGTIISDWGGRLELEIDKKARIWARVSRKQKISILVLSSAMGLNLREILENVCYPEIFLSFLTDKEKKKIGSKENAILEFYQQFSCVGGDPIFSESLCKELQKKFFHQRCELGRIGRRNINWRLNLNIPQNNIFLLPRDVLAAADHLIGMKFGMGTLDDMNHLKNKRIRSVADLLQDQLGLALARLENVVKGTISGAIRHKLIPTPQNLVTSTPLTTTYESFFGLHPLSQVLDRTNPLTQIVHGRKLSYLGPGGLTGRTANFRIRDIHPSHYGRICPIDTSEGINVGLIGSLSIHARIGDWGSLESPFYELFEKSKKARIRMLFLSPSQDEYYMIAAGNSLALNRGIQEEQAVPARYRQEFLTIAWEEVHLRSIFPFQYFSIGASLIPFIEHNDANRALMSSNMQRQAVPLSRSEKCIVGTGLERQVALDSGVPAIAEHEGKILYTDTEKIVFSGNGDTLSIPLIMYQRSNKNTCMHQKPQVRRGKCIKKGQILADGAATVGGELALGKNILVAYMPWEGYNFEDAVLISECLVYGDIYTSFHIRKYEIQTHVTTQGPERITKEIPHLEGRLLRNLDKNGIVMLGSWVETGDILVGKLTPQVAKESSYAPEDRLLRAILGIQVSTSKETCLKLPIGGRGRVIDVRWVQKKGGSSYNPEIIRVYISQKREIKVGDKVAGRHGNKGIISKILPRQDMPYLQDGRPVDMVFNPLGVPSRMNVGQIFECSLGLAGSLLDRHYRIAPFDERYEQEASRKLVFSELYEASKQTANPWVFEPEYPGKSRIFDGRTGDPFEQPVIIGKPYILKLIHQVDDKIHGRSSGHYALVTQQPLRGRSKQGGQRVGEMEVWALEGFGVAHILQEMLTYKSDHIRARQEVLGTTIIGGTIPKPEDAPESFRLLVRELRSLALELNHFLVSEKNFQINRKEV

Each binder was assayed against T2, NAC102-eYFP (Arabidopsis thaliana) (assay: co-IP; total proteins of 8-day-old NAC102-eYFP transgenic seedlings, GFP-Trap beads 1 h; IP buffer 50 mM Tris-HCl pH 7.4, 150 mM NaCl, 1% Triton X-100, 1% sodium deoxycholate, 20 mM EDTA; wash buffer also with 0.1% SDS; blots with antibodies against rpoA, rpoB, rpoC1, rpoC2, rpoTp, rpoTmp; SSU-eYFP line as negative control; repeated twice).

binding | Binder
binds | rpoTp (endogenous) (protein, UniProt O24600 96-993) AGTIKGASLIEELENPVERNGLSGRRRLFMQDPPWISALFLKGLSKMVDQTLKIERKDIDKRKFDSLRRRQVKEETEAWERMVDEYRDLEKEMCEKNLAPNLPYVKHMFLGWFQPLKDVIEREQKLQKNKSKKVRAAYAPHIELLPADKMAVIVMHKMMGLVMSGHEDGCIQVVQAAVSIGIAIEQEVRIHNFLKRTRKNNAGDSQEELKEKQLLRKRVNSLIRRKRIIDALKVVKSEGTKPWGRATQAKLGSRLLELLIEAAYVQPPLTQSGDSIPEFRPAFRHRFKTVTKYPGSKLVRRYGVIECDSLLLAGLDKSAKHMLIPYVPMLVPPKRWKGYDKGGYLFLPSYIMRTHGSKKQQDALKDISHKTAHRVFEALDTLGNTKWRVNRNILDVVERLWADGGNIAGLVNREDVPIPEKPSSEDPEELQSWKWSARKANKINRERHSLRCDVELKLSVARKMKDEEGFYYPHNLDFRGRAYPMHPHLNHLSSDLCRGTLEFAEGRPLGKSGLHWLKIHLANLYAGGVEKLSHDARLAFVENHLDDIMDSAENPIHGKRWWLKAEDPFQCLAACVILTQALKSPSPYSVISHLPIHQDGSCNGLQHYAALGRDSFEAAAVNLVAGEKPADVYSEISRRVHEIMKKDSSKDPESNPTAALAKILITQVDRKLVKQTVMTSVYGVTYVGAREQIKRRLEEKGVITDERMLFAAACYSAKVTLAALGEIFEAARAIMSWLGDCAKIIASDNHPVRWITPLGLPVVQPYCRSERHLIRTSLQVLALQREGNTVDVRKQRTAFPPNFVHSLDGTHMMMTAVACREAGLNFAGVHDSYWTHACDVDTMNRILREKFVELYNTPILEDLLQSFQESYPNLVFPPVPKRGDFDLKEVLKSQYFFN
binds | rpoA (endogenous) (protein, UniProt P56762 1-329) MVREKVKVSTRTLQWKCVESKRDSKRLYYGRFILSPLMKGQADTIGIAMRRALLGEIEGTCITRAKSENIPHDYSNIAGIQESVHEILMNLNEIVLRSNLYGTRNALICVQGPGYITARDIILPPAVEIIDNTQHIATLTEPIDLCIELKIERNRGYSLKMSNNFEDRSYPIDAVFMPVENANHSIHSYGNGNEKQEILFLEIWTNGSLTPKEALHQASRNLINLFIPFLHVEEETFYLENNQHQVTLPFFPFHNRLVNLRKKKKTKELAFQYIFIDQLELPPRIYNCLKKSNIHTLLDLLNNSQEDLIKIEHFHVEDVKKILDILEKK
binds | rpoB (endogenous) (protein, UniProt P50546 1-1072) MLGDEKEGTSAIPGFNQIQFEGFYRFIDQGLIEELAKFPKIEDIDHEIEFQLFVETYQLVEPLIKERDAVYESLTYSSELYVSAGLIWKTSRNMQEQRIFIGNIPLMNSLGTSIVNGIYRIVINQILQSPGIYYQSELDHNGISVYTGTIISDWGGRLELEIDKKARIWARVSRKQKISILVLSSAMGLNLREILENVCYPEIFLSFLTDKEKKKIGSKENAILEFYQQFSCVGGDPIFSESLCKELQKKFFHQRCELGRIGRRNINWRLNLNIPQNNIFLLPRDVLAAADHLIGMKFGMGTLDDMNHLKNKRIRSVADLLQDQLGLALARLENVVKGTISGAIRHKLIPTPQNLVTSTPLTTTYESFFGLHPLSQVLDRTNPLTQIVHGRKLSYLGPGGLTGRTANFRIRDIHPSHYGRICPIDTSEGINVGLIGSLSIHARIGDWGSLESPFYELFEKSKKARIRMLFLSPSQDEYYMIAAGNSLALNRGIQEEQAVPARYRQEFLTIAWEEVHLRSIFPFQYFSIGASLIPFIEHNDANRALMSSNMQRQAVPLSRSEKCIVGTGLERQVALDSGVPAIAEHEGKILYTDTEKIVFSGNGDTLSIPLIMYQRSNKNTCMHQKPQVRRGKCIKKGQILADGAATVGGELALGKNILVAYMPWEGYNFEDAVLISECLVYGDIYTSFHIRKYEIQTHVTTQGPERITKEIPHLEGRLLRNLDKNGIVMLGSWVETGDILVGKLTPQVAKESSYAPEDRLLRAILGIQVSTSKETCLKLPIGGRGRVIDVRWVQKKGGSSYNPEIIRVYISQKREIKVGDKVAGRHGNKGIISKILPRQDMPYLQDGRPVDMVFNPLGVPSRMNVGQIFECSLGLAGSLLDRHYRIAPFDERYEQEASRKLVFSELYEASKQTANPWVFEPEYPGKSRIFDGRTGDPFEQPVIIGKPYILKLIHQVDDKIHGRSSGHYALVTQQPLRGRSKQGGQRVGEMEVWALEGFGVAHILQEMLTYKSDHIRARQEVLGTTIIGGTIPKPEDAPESFRLLVRELRSLALELNHFLVSEKNFQINRKEV
